Some results were stated once for a whole list of compounds, not compound by compound.
Molecular target: T1, EphB4 kinase (Homo sapiens, UniProt P54760)
T1 construct: cytoplasmic domain of recombinant EphB4 kinase (amino acids 596–987, Homo sapiens EphB4); 6xHis (C); made in house; host or cells: Sf9 cells
T1 sequence (P54760 596-987): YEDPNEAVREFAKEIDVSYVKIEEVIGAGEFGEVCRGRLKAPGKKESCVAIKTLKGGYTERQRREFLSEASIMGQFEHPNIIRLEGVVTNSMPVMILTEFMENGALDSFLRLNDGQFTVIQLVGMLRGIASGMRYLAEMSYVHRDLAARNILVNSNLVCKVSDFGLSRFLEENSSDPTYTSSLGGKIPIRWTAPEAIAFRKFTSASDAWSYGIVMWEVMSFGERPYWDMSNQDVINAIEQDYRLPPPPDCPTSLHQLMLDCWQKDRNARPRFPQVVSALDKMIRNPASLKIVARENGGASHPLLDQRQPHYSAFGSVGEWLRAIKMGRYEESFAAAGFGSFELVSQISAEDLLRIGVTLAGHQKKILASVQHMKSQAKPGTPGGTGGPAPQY
Assay: Assay for EphB4 kinase activity (FRET, Example 7)
Assay type: biochemical
Conditions: 110 μM ATP

Row | SMILES | IC50
1 | COc1ccc(C(F)(F)F)cc1NC(=O)Nc1cccc(-c2cn3ccnc3c(-n3ccnc3-c3ccncc3)n2)c1 [Compound 7, 1-(2-Methoxy-5-trifluoromethyl-phe-nyl)-3-{3-[8-(2-pyridin-4-yl-imi-dazol-1-yl)-imidazo[1,2-a]pyra-zin-6-yl]-phenyl}-urea] | ≤ 10 µM
2 | COc1ccc(NC(=O)Nc2cccc(-c3cn4ccnc4c(-n4ccnc4-c4ccncc4)n3)c2)cc1C(F)(F)F [Compound 8, 1-(4-Methoxy-3-trifluoromethyl-phe-nyl)-3-{3-[8-(2-pyridin-4-yl-imi-dazol-1-yl)-imidazo[1,2-a]pyra-zin-6-yl]-phenyl}-urea] | ≤ 10 µM
3 | COc1ccc(C(F)(F)F)cc1NC(=O)Nc1cccc(-c2cn3ccnc3c(-n3ccnc3-c3cccnc3)n2)c1 [Compound 9, 1-(2-Methoxy-5-trifluoromethyl-phe-nyl)-3-{3-[8-(2-pyridin-3-yl-imi-dazol-1-yl)-imidao[1,2-a]pyra-zin-6-yl]-phenyl}-urea] | ≤ 10 µM
4 | COc1ccc(Cl)cc1NC(=O)Nc1cccc(-c2cn3ccnc3c(-n3ccnc3-c3ccncc3)n2)c1 [Compound 10, 1-(5-Chloro-2-methoxy-phenyl)-3-{3-[8-(2-py-ridin-4-yl-imidazol-1-yl)-imi-dazo[1,2-a]pyrazin-6-yl]-phe-nyl}-urea] | ≤ 10 µM
5 | O=C(Nc1cccc(-c2cn3ccnc3c(-n3ccnc3-c3ccncc3)n2)c1)Nc1cc(F)ccc1C(F)(F)F [Compound 11, 1-(5-Fluoro-2-trifluoromethyl-phe-nyl)-3-{3-[8-(2-pyridin-4-yl-imi-dazol-1-yl)-imidazo[1,2-a]pyra-zin-6-yl]-phenyl}-urea] | ≤ 10 µM
6 | O=C(Nc1cccc(-c2cn3ccnc3c(-n3ccnc3-c3ccncc3)n2)c1)Nc1cc(Cl)ccc1C(F)(F)F [Compound 12, 1-(5-Chloro-2-trifluoromethyl-phe-nyl)-3-{3-[8-(2-pyridin-4-yl-imi-dazol-1-yl)-imidazo[1,2-a]pyra-zin-6-yl]-phenyl}-urea] | ≤ 10 µM
7 | COc1cc(OC)c(NC(=O)Nc2cccc(-c3cn4ccnc4c(-n4ccnc4-c4ccncc4)n3)c2)cc1Cl [Compound 13, 1-(5-Chloro-2,4-dimethoxy-phenyl)-3-{3-[8-(2-pyri-din-4-yl-imidazol-1-yl)-imi-dazo[1,2-a]pyrazin-6-yl]-phe-nyl}-urea] | ≤ 10 µM
8 | Cc1ccc(NC(=O)Nc2cccc(-c3cn4ccnc4c(-n4ccnc4-c4ccncc4)n3)c2)cc1C(F)(F)F [Compound 14, 1-(4-Methyl-3-trifluoromethyl-phe-nyl)-3-{3-[8-(2-pyridin-4-yl-imi-dazol-1-yl)-imidazo[1,2-a]pyra-zin-6-yl]-phenyl}-urea] | ≤ 10 µM
9 | O=C(Nc1cccc(-c2cn3ccnc3c(-n3ccnc3-c3ccncc3)n2)c1)Nc1ccc(Cl)c(C(F)(F)F)c1 [Compound 15, 1-(4-Chloro-3-trifluoromethyl-phe-nyl)-3-{3-[8-(2-pyridin-4-yl-imi-dazol-1-yl)-imidazo[1,2-a]pyra-zin-6-yl]-phenyl}-urea] | ≤ 10 µM
